From patent US20140030304A1, “Process for the Treatment of Synthetic Textiles with Cationic Biocides” (priority 2011, published 2014)
Some of these results come from one statement about several compounds together.

System: Staphylococcus aureus
Experiment: Quick-kill test (AATCC-100) on treated PP textile, Staphylococcus aureus
Format: cell-based
Settings: textile spray-treated with aqueous solution of unformulated biocide (2-3% w); 5 minutes contact time; positive control

CCCCCCCCCCCCCCCC[N+](C)(C)C.[Cl-] [CTAC, cetyltrimethylammonium chloride] was tested, and the “log-reduction of the population, S. aureus” value was greater than 4 log.
